The values below come from publication PMC7819943, “Rice protein-binding microarrays: a tool to detect cis-acting elements near promoter regions in rice”.

By UniProt entry, the sequences of proteins in these tests, tags left out.
UniProt Q0JBA9, entry or part of it: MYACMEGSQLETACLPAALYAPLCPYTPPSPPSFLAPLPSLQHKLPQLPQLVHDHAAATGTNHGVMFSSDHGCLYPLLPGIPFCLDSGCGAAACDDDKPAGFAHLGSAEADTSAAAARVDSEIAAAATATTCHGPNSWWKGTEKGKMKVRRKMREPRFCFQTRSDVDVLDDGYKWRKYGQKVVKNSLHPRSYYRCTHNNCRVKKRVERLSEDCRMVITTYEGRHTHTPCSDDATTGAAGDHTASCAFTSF

This is one part of the list.

In the test the target is OsWRKY34 (Oryza sativa, UniProt Q0JBA9 1-250). Nature of the test: protein-binding microarray (RPBM); PBS, 2% BSA, 51.3 ng/ul salmon testes DNA, 50 uM zinc acetate, 200 nM TF, 25 C, 1 h; high values mean tight binding. To be noted: protein: recombinant; tags: N-terminal polyhistidine and DsRed monomer fusion (pET32a); label: CyDye5-dUTP incorporated in the synthesized complementary strand; 3' TTTTT single-stranded linker to array surface; dsDNA, one strand shown. The essentials: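 Transcription factors, each fused N-terminally to a polyhistidine tag and DsRed, were expressed in E. coli BL21-CodonPlus and purified on Ni–NTA. A custom Agilent array was made double-stranded by primer extension with Cy5-dUTP and blocked with 2% BSA. It was incubated with 200 nM protein in PBS, 2% BSA, salmon testes DNA and 50 µM zinc acetate at 25 °C for 1 h, then washed. The binding signal is per-feature fluorescence intensity (arbitrary units) read on an Axon 4000B scanner.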
Take “AATCCCCAGCCCTAGCCACCACCGCCGGTCTCTCCTCCCTCGGAGTCACCTAGTGCAG”: the binding signal was 8180 fluorescence intensity (a.u.).
“TATATCTATGCGCCTCTTGTTGTGTCATATCGACTGATATCGGAGTCACCTAGTGCAG”: the binding signal is 10300 fluorescence intensity (a.u.).
With “CACAACCACCAGCTTTAAAAGAAGGGGCAAATGGGGAGGGCGGAGTCACCTAGTGCAG”, the binding signal is 8670 fluorescence intensity (a.u.).
Consider “TTGCAGCTTGGTCATGCAGGCTTCTTCACCAATTGTACTACGGAGTCACCTAGTGCAG”, for which the binding signal is 8990 fluorescence intensity (a.u.).
As to “TATCACTCCTATTCGCGATATCGGCTGCCACTGAAATTTTCGGAGTCACCTAGTGCAG”, the binding signal is 12900 fluorescence intensity (a.u.).
Consider “CCGCCGTTCACCACATCCTGCCCACCCGCAACCCGCGCCGCGGAGTCACCTAGTGCAG”, for which the binding signal was 10100 fluorescence intensity (a.u.).
In the case of “AACAATGGGTTATTTTTCATCTGTCATGTCTTACGGTTATCGGAGTCACCTAGTGCAG”, the binding signal is 11400 fluorescence intensity (a.u.).
On to “TTAAATATGGATAGTTTGTATGTGTTTTGTTTATATATATCGGAGTCACCTAGTGCAG”, for which the binding signal is 9620 fluorescence intensity (a.u.).
As to “ACTACTATTCGTTATATAGGCTACATGCCATTGAAAATTTCGGAGTCACCTAGTGCAG”, the binding signal is 8120 fluorescence intensity (a.u.).
On to “CCAGGGAATTTAACCGTGCCCACACCCATCTGTTCCCTTCCGGAGTCACCTAGTGCAG”, for which the binding signal is 8260 fluorescence intensity (a.u.).
With “TTCCTGTAGACTATATTCATGGTGAATTAACCTTTCTTTCCGGAGTCACCTAGTGCAG”, the binding signal was 9110 fluorescence intensity (a.u.).
The value for “TATGTGCCTGTATTGGGCTAGATCATGATGGTATATTCTACGGAGTCACCTAGTGCAG” was 10400 fluorescence intensity (a.u.); that for “ACCTTCGAATCCAGCACACACCAACCACGTCCCCGACCTCCGGAGTCACCTAGTGCAG” was 8030 fluorescence intensity (a.u.); that for “TACACAACCCAACAACCGTCCATCCACTCGTTCAGGCGCTCGGAGTCACCTAGTGCAG” was 10400 fluorescence intensity (a.u.).
For “AAATCTCGTGTCTTCTGTAATTGATCTGTTGTTTTTTATCCGGAGTCACCTAGTGCAG”, the binding signal was 9900 fluorescence intensity (a.u.).
As to “CTTTGCACGAAAATTGTCGAGTGATTTTTACAATTTCAACCGGAGTCACCTAGTGCAG”, the binding signal is 8350 fluorescence intensity (a.u.).
As for “GCATTATTCGTCTATCCATTTTCTCCCATGCTAAATCCAACGGAGTCACCTAGTGCAG”, the figure is 9580 fluorescence intensity (a.u.); as for “GGGTTTGCATTATTTTGGAACGGAGGGAGTAGGTAGTAGCCGGAGTCACCTAGTGCAG”, 9350 fluorescence intensity (a.u.); as for “ACTTCGTCCAATTGCTCTCTCTCTCTCTCTCATTTCTTTTCGGAGTCACCTAGTGCAG”, 14200 fluorescence intensity (a.u.).
Consider “CATGCAGACTTTCCCGATTTCTCCGCCTCCACGTGTCACTCGGAGTCACCTAGTGCAG”, for which the binding signal is 9270 fluorescence intensity (a.u.).
As for “TCCCGTGCACTCTCTCTGCAGCAGAATAATCTACTGAATCCGGAGTCACCTAGTGCAG”, the figure is 9160 fluorescence intensity (a.u.); as for “TTTTTTTTTCAGTTTTATTATTATTACTTACTTACACGCGCGGAGTCACCTAGTGCAG”, 8160 fluorescence intensity (a.u.).
Regarding “CTTCCAGGATTTTTCTTCATTGCTTGAATGGTGCTCCACTCGGAGTCACCTAGTGCAG”, the binding signal was 11000 fluorescence intensity (a.u.).
On to “GGGTTGAGCACAGCAGTTTACAGTAGTGTTATTTCGTATTCGGAGTCACCTAGTGCAG”, for which the binding signal is 11200 fluorescence intensity (a.u.).
Take “CTCTATTTAAAATTTTCTTTCACCCATGAGTTCTTATATTCGGAGTCACCTAGTGCAG”: the binding signal was 9600 fluorescence intensity (a.u.).
“TCGGAGGGGTTTTATGCAAAGTGTCGATTGGCTTTTTGTGCGGAGTCACCTAGTGCAG”: the binding signal is 14600 fluorescence intensity (a.u.).
Regarding “AGAGGGATGTGCCATTGTTCTGTTTGGTTGAAAGACATTGCGGAGTCACCTAGTGCAG”, the binding signal is 9500 fluorescence intensity (a.u.).
In the case of “GTCCAGTGGACCAACCGGGTCACGGTCTCACGTGCCAAAGCGGAGTCACCTAGTGCAG”, the binding signal is 8710 fluorescence intensity (a.u.).
Take “TGGGGAGGGGAGGGAGAGGTGTCGTCAACAGGGAGGGAGGCGGAGTCACCTAGTGCAG”: the binding signal was 15300 fluorescence intensity (a.u.).
On to “TCCTCTGATGGCCACCGTCGCCGTGTTCTTCCCGCTGCCGCGGAGTCACCTAGTGCAG”, for which the binding signal was 8340 fluorescence intensity (a.u.).
As for “GTCTTGGGTTGGCTTGGCTTGCTGTCCGCCCGCGTTCACACGGAGTCACCTAGTGCAG”, the binding signal was 10400 fluorescence intensity (a.u.).
For the sequence “TCCAATCTCGGGTTCACATCCCCTGCCATCCAGCTCATACCGGAGTCACCTAGTGCAG”, the binding signal was 9860 fluorescence intensity (a.u.).
Take “TACGCTTTTCTCCCTTCTTTCCCCTTTTCGCGCTATCCTTCGGAGTCACCTAGTGCAG”: the binding signal was 9800 fluorescence intensity (a.u.).
As for “CAGCCTCCTCCTGTGTGCTTGATCCCAACCGACAACGTCCCGGAGTCACCTAGTGCAG”, the figure is 8100 fluorescence intensity (a.u.); as for “GATTGCTTCACTTTGCCATGCCACACTTCAGTCATGCCACCGGAGTCACCTAGTGCAG”, 8530 fluorescence intensity (a.u.); as for “GTCCTGCTACGCATACTCTCCCCTCTGACTCTTTGCGCCACGGAGTCACCTAGTGCAG”, 8250 fluorescence intensity (a.u.).
Take “GGTCGCGAGAACTTGTGGCTGGGAGGGTCCAGGGCGCGCACGGAGTCACCTAGTGCAG”: the binding signal is 9780 fluorescence intensity (a.u.).
As to “AGTCAAATTGCACCGGTTTCGAGAGTTAGGGGTTGAGATACGGAGTCACCTAGTGCAG”, the binding signal is 8810 fluorescence intensity (a.u.).
Regarding “GGCTACGACTCTACCTCACATGCCCCACGCATCGTTTGCACGGAGTCACCTAGTGCAG”, the binding signal was 10400 fluorescence intensity (a.u.).
For “TTATTATGGTTATATTGTACTAATTCATTGTCCAGGTTTTCGGAGTCACCTAGTGCAG”, the binding signal was 8430 fluorescence intensity (a.u.).
Consider “AACGCCTCTGCCGCCCTCCTCTCTCTCTCTCTTGCTCGCTCGGAGTCACCTAGTGCAG”, for which the binding signal was 9550 fluorescence intensity (a.u.).
Take “AGCGTTTCTTTTTTACCCGTTTCTGTCCTAACATGAACCCCGGAGTCACCTAGTGCAG”: the binding signal was 8170 fluorescence intensity (a.u.).
